Patent publication US20040241164A1
These are yes or no findings as the source states them, for the method shown. Some entries that bind do so weakly or less than the wild type.

The chains behind the UniProt entries cited, without tags or fusion partners. Residues count along the entry.
UniProt P05067, residues 672-711: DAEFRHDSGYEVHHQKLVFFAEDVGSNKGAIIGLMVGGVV

Molecular target: soluble Aβ (UniProt P05067)
Assay: worded comparison of affinities

B1: humanized 266 antibody (antibody, human IgG1, kappa, V domains shown)
VH: EVQLVESGGGLVQPGGSLRLSCAASGFTFSRYSMSWVRQAPGKGLELVAQINSVGNSTYYPDTVKGRFTISRDNAKNTLYLQMNSLRAEDTAVYYCASGDYWGQGTLVTVSS
VL: DVVMTQSPLSLPVTLGQPASISCRSSQSLIYSDGNAYLHWFLQKPGQSPRLLIYKVSNRFSGVPDRFSGSGSGTDFTLKISRVEAEDVGVYYCSQSTHVPWTFGQGTKVEIKR
With B1 the binding was “binds”.
